Among the data in PubChem BioAssay AID292 (DTP/NCI, 2004) are T/C and survivor count values, retold here.

The subject of the test is B6C3F1 mice, ip Sarcoma M5076, median survival T/C. The experiment in a line: NCI In Vivo Anticancer Drug Screen. Data for tumor model Sarcoma M5076 (intraperitoneal) in B6C3F1 mice. To be noted: T/C endpoint: median survival time, higher T/C = longer survival. In a few lines:
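Antitumour effect is judged in tumour-bearing mice by comparing survival after compound dosing against vehicle-only animals, reported as T/C.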

Where [1] appears, read: dose: 128.0 micrograms/kg/injection, schedule: Q04DX004 (ip), vehicle: water.
Setting [2] is: dose: 800.0 mg/kg/injection, schedule: Q04DX004 (ip), vehicle: saline with Tween-80.
[3] abbreviates: dose: 600.0 mg/kg/injection, schedule: Q04DX004 (ip), vehicle: Klucel (hydroxypropylcellulose) (HPC).
[4] abbreviates: dose: 300.0 micrograms/kg/injection, schedule: Q04DX005 (ip), vehicle: saline.
Where [5] appears, read: dose: 400.0 mg/kg/injection, schedule: Q04DX004 (ip), vehicle: saline with Tween-80.
Where [6] appears, read: dose: 400.0 mg/kg/injection, schedule: Q04DX004 (ip), vehicle: Klucel (hydroxypropylcellulose) (HPC).

The list shows only some results of the screen, not a fair sample: it is rich in T/C values a quarter to a half above the control, in often repeated tests (any T/C) and in doses without a T/C. Other doses and runs of a compound stand elsewhere. T/C is the treated group as % of the vehicle group. Some doses have a count of surviving animals in place of a T/C: the source holds a T/C of zero for them, seemingly a mark for toxic or unscored doses. Some doses without a T/C left all or most animals alive at the check, yet need not have been tolerated: the source hardly ever lists a survival T/C far under the control, and the zero likely stands for such cases as well. Survivors were counted at the toxicity check, usually on the fifth day, unless a day is given; later deaths do not show. Schedule codes are those of the source, taken here to give the interval after Q, in days (D) or hours (H), and the number of doses after X. Some doses were run more than once; the values are given in rising order. For survival time, this PubChem deposit counts one and a half times the control or more as active, and values a quarter to a half above the control carry no call in these data; other NCI protocols may use other cut-offs. Some T/C values are followed by the survivors on the day toxicity was checked, most often the fifth; where none is given, no animal had died by that day.

As for `C=C1COC(O)(C2OCOC(C3CC(=O)NC(=O)C3)C2O)C1C` (stereo unspecified), the T/C reads like this: (dose: 8.0 micrograms/kg/injection, schedule: Q04DX004 (ip), vehicle: water) 129 % of control; (dose: 16.0 micrograms/kg/injection, schedule: Q04DX004 (ip), vehicle: water) 126 and 142 % of control; (dose: 23.0 micrograms/kg/injection, schedule: Q04DX004 (ip), vehicle: water) 125 % of control; (dose: 64.0 micrograms/kg/injection, schedule: Q04DX004 (ip), vehicle: water) 100 [8 of 10 alive on day 14], 102, 165, 172, 179 % of control; (dose: 106.6 micrograms/kg/injection, schedule: Q04DX004 (ip), vehicle: water) 130 % of control; under setting [1], 125 [9 of 10 alive] and 126 % of control. Besides, the survivor count is given as 6 of 10 on day 14 (dose: 107.0 micrograms/kg/injection, schedule: Q04DX004 (ip), vehicle: water); 6 of 10 on day 14 under setting [1]; 0 of 10 on day 14 (dose: 178.0 micrograms/kg/injection, schedule: Q04DX004 (ip), vehicle: water); 0 of 10 on day 14 (dose: 256.0 micrograms/kg/injection, schedule: Q04DX004 (ip), vehicle: water).
Regarding `O=C(Nc1cc(Cl)ccc1C(=O)O)c1cccc(C[n+]2ccccc2)c1`, the survivor count under setting [2] is on record as 1 of 10 on day 14.
Consider `O=C(Nc1cccc2ccccc12)C1C(=O)C(=O)N(c2cccc3ccccc23)C1=O` (stereo unspecified), for which the survivor count under setting [3] is 5 of 10 on day 14.
Take `CCN(CC)CCn1[nH]c2c3ccc(=O)cc3sc3c(NCCN)ccc1c32`: the T/C runs as follows: (dose: 3.12 mg/kg/injection, schedule: Q04DX004 (ip), vehicle: water) 145 % of control; (dose: 3.13 mg/kg/injection, schedule: Q04DX004 (ip), vehicle: water) 140 % of control. For the same compound, the survivor count (dose: 50.0 mg/kg/injection, schedule: Q04DX004 (ip), vehicle: water) is 0 of 10 on day 14 and 1 of 10 on day 14.
On to `COc1cc2cc(c1Cl)N(C)C(=O)C[C@H](OC(=O)[C@H](C)N(C)C(C)=O)[C@]1(C)O[C@H]1[C@H](C)[C@@H]1C[C@@](O)(NC(=O)O1)[C@H](OC)C=C/C=C(\C)C2`, for which the T/C by setting is: (dose: 75.0 micrograms/kg/injection, schedule: Q04DX004 (ip), vehicle: saline) 133 % of control; (dose: 75.0 micrograms/kg/injection, schedule: Q04DX005 (ip), vehicle: saline) 130 % of control; (dose: 150.0 micrograms/kg/injection, schedule: Q04DX004 (ip), vehicle: saline) 145 % of control [9 of 10 alive on day 14]; under setting [4], 146 % of control [7 of 8 alive on day 17]. For the same compound, the survivor count reads like this: (dose: 300.0 micrograms/kg/injection, schedule: Q04DX004 (ip), vehicle: saline) 1 of 10 on day 14; under setting [4], 6 of 9 on day 14; (dose: 600.0 micrograms/kg/injection, schedule: Q04DX004 (ip), vehicle: saline) 0 of 10 on day 14; (dose: 600.0 micrograms/kg/injection, schedule: Q04DX005 (ip), vehicle: saline) 0 of 10 on day 14 and 4 of 8 on day 17.
With `C/C([O-])=c1\c(C)nn2ccc[n+]12`, the survivor count under setting [5] is on record as 4 of 10 on day 14.
On to `CC(=O)Oc1ccccc1O`, for which the survivor count (dose: 100.0 mg/kg/injection, schedule: Q04DX004 (ip), vehicle: saline + Tween-80 + alcohol) is reported as 10 of 10 on day 9.
For the compound `NCCn1c(-c2ccccc2)nc2ccccc2c1=O`, under setting [6], the survivor count was 2 of 10 on day 14.
For `O=C(CSc1nnc(CSc2ccc(Cl)cc2)n1-c1ccccc1)NC(=O)Nc1ccccc1`, the survivor count is listed as 10 of 10 on day 14 (dose: 75.0 mg/kg/injection, schedule: Q04DX004 (ip), vehicle: Klucel (hydroxypropylcellulose) (HPC)); 10 of 10 on day 14 (dose: 150.0 mg/kg/injection, schedule: Q04DX004 (ip), vehicle: Klucel (hydroxypropylcellulose) (HPC)); 10 of 10 on day 14 (dose: 300.0 mg/kg/injection, schedule: Q04DX004 (ip), vehicle: Klucel (hydroxypropylcellulose) (HPC)); 10 of 10 on day 14 under setting [3].
On to `O=C(N/N=C/c1ccc(O)cc1)c1ccc(OCc2nc3ccccc3[nH]2)cc1`, for which the survivor count runs as follows: (dose: 50.0 mg/kg/injection, schedule: Q04DX004 (ip), vehicle: Klucel (hydroxypropylcellulose) (HPC)) 10 of 10 on day 14; (dose: 200.0 mg/kg/injection, schedule: Q04DX004 (ip), vehicle: Klucel (hydroxypropylcellulose) (HPC)) 10 of 10 on day 14.
Regarding `O=S1(=O)C(c2cccc(F)c2)=C(O)c2cc3ccccc3nc21`, for the setting “dose: 425.0 mg/kg/injection, schedule: Q04DX004 (ip), vehicle: saline with Tween-80”, the survivor count is reported as 0 of 10 on day 14.
Take `CCOC(=O)N(C)N=NC`: the T/C is, setting by setting: (dose: 6.0 mg/kg/injection, schedule: Q04DX004 (ip), vehicle: saline) 133 % of control [9 of 10 alive on day 14]; (dose: 7.5 mg/kg/injection, schedule: Q04DX004 (ip), vehicle: saline) 131 % of control; (dose: 15.0 mg/kg/injection, schedule: Q04DX004 (ip), vehicle: saline) 140 % of control. For the same compound, under “dose: 120.0 mg/kg/injection, schedule: Q04DX004 (ip), vehicle: saline”, the survivor count is reported as 3 of 10 on day 14.
For `CCN(CC)CCn1c2c(c3ccc(OC)cc31)CCN1CC3CC(OC(=O)c4cc(OC)c(OC)c(OC)c4)C(OC)C(C(=O)OC)C3CC21` (stereo unspecified), for the setting “dose: 400.0 mg/kg/injection, schedule: Q04DX004 (ip), vehicle: saline”, the survivor count is 6 of 10 on day 14.
Take `C1CCC(NC2CCCCC2)CC1`: the survivor count runs as follows: (dose: 600.0 mg/kg/injection, schedule: Q04DX004 (ip), vehicle: saline) 6 of 10 on day 14; (dose: 1200.0 mg/kg/injection, schedule: Q04DX004 (ip), vehicle: saline) 0 of 10 on day 14.
In the case of `Cc1cccc(OCC(O)CN2CC2)c1` (stereo unspecified), the survivor count runs as follows: (dose: 200.0 mg/kg/injection, schedule: Q04DX004 (ip), vehicle: saline with Tween-80) 4 of 10 on day 14; under setting [5], 0 of 10 on day 14.
As to `CCc1c(C)c(SC)n(C)c(=O)c1C#N`, the survivor count under setting [2] is 6 of 10 on day 14.
Regarding `NC(=O)C(N)C(F)c1ccccc1` (stereo unspecified), the survivor count (dose: 500.0 mg/kg/injection, schedule: Q04DX004 (ip), vehicle: saline with Tween-80) is 3 of 10 on day 14.
As to `O=C(Nc1ccccc1[N+](=O)[O-])C1C(=O)C(=O)N(c2ccccc2[N+](=O)[O-])C1=O` (stereo unspecified), the survivor count reads like this: under setting [6], 4 of 10 on day 14; (dose: 800.0 mg/kg/injection, schedule: Q04DX004 (ip), vehicle: Klucel (hydroxypropylcellulose) (HPC)) 0 of 10 on day 14.
With `O=C1N[C@@H]([C@H]2CC[C@H](Cl)CN2)C(=O)N[C@H]1[C@H]1CC[C@H](Cl)CN1`, under “dose: 1.0 mg/kg/injection, schedule: Q04DX005 (ip), vehicle: saline”, the T/C is 143 % of control.
As to `CC1(CO)C(O)CCC2(C)C1CCC1CC3CC12CCC3(O)CO` (stereo unspecified), the T/C (dose: 144.0 mg/kg/injection, schedule: Q04DX004 (ip), vehicle: Klucel (hydroxypropylcellulose) (HPC)) is 137 % of control and the T/C (dose: 400.0 mg/kg/injection, schedule: Q04DX005 (ip), vehicle: Klucel (hydroxypropylcellulose) (HPC)) was 138 % of control [7 of 10 alive on day 14]. The survivor count is 0 of 10 on day 14 and 5 of 10 on day 14 (dose: 666.67 mg/kg/injection, schedule: Q04DX004 (ip), vehicle: Klucel (hydroxypropylcellulose) (HPC)); 0 of 10 on day 14 (dose: 1111.12 mg/kg/injection, schedule: Q04DX004 (ip), vehicle: Klucel (hydroxypropylcellulose) (HPC)).
